Laboratory results reported in patent publication US20250304713A1, “COMBINATION IMMUNOTHERAPY COMPOSITIONS AND METHODS OF USE THEREOF” (THE PENN STATE RESEARCH FOUNDATION, priority 2022, published 2025).
At least one structure is not confirmed: it was looked up by name or label, or the drawing left a doubt.

Tests used:
9464D-GD2 tumors = test: 9464D-GD2 syngeneic subcutaneous neuroblastoma model, tumor growth, volume and weight; format: in vivo, mouse
Experimental: All animal studies were performed according to guidelines established by the Institutional Animal Care and Use Committee (IACUC) at the Penn State College of Medicine (Hershey, PA). An immunocompetent mouse model of neuroblastoma was generated by subcutaneously injecting 1×10^6 9464D-GD2 cells in a 50:50 mixture of DMEM and Matrigel (Corning, 354234) into C57BL/6J mice (8- to 10-week-old, JAX 000664) with male and female mice represented at an equal ratio. One week following tumor cell inoculation, mice were randomized into treatment groups. Where indicated, mice were treated twice-weekly by tail-vein injection with PBS (100 μL), dinutuximab ([…] in 100 μL PBS), purified sEVs from 9464D-GD2 cells ([…] in 100 μL PBS), or the combination of dinutuximab and sEVs. Where indicated, tipifarnib (25 mg/kg) or an equivalent volume of vehicle was administered twice daily by oral gavage. Primary tumor growth was monitored by measuring tumor volume using calipers (volume=π(length*width^2)/6). At the experimental endpoint, mice were euthanized, and tumor, blood, spleen and bone marrow were harvested for ex vivo analysis. Endpoint tumor volume was calculated by measuring tumors using calipers (volume=π(length*width*height)/6).

[1] = test system: tumor-infiltrating NK cells, T-cells and tumor-associated macrophages in 9464D-GD2 tumors; test: Flow cytometry of tumor-infiltrating immune cells (NK cells, T-cells, TAMs); format: in vivo, mouse; conditions: day 24, treatment as FIG. 4D (FIG. 5A)
Experimental: Murine tumors and spleens were harvested at the experimental endpoint and mechanically disassociated. Tumors were further digested with tumor digestion buffer ([…] Collagenase Type I (Thermo Fisher, 17018029) and 2000 Units/ml DNase (Sigma-Aldrich, DN25-100MG) in HBSS buffer at room temperature for 1 hour. Dissociated tumor cells and spleen cells were passed through a 70 μm cell strainer (Falcon BD, 352350), pelleted, and washed once with PBS supplemented with 1% FBS. Red blood cells were lysed with RBC lysis buffer (0.0155 M NH4Cl, 1.2 mM NaHCO3, 0.01 mM Na2EDTA, pH 7.4 in distilled water) for 3 minutes on ice and neutralized with PBS supplemented with 10% FBS. Cells were centrifuged and resuspended in FACS buffer to obtain single cell suspensions.
All animal studies were performed according to guidelines established by the Institutional Animal Care and Use Committee (IACUC) at the Penn State College of Medicine (Hershey, PA). […] Primary tumor growth was monitored by measuring tumor volume using calipers (volume=π(length*width^2)/6). […] Endpoint tumor volume was calculated by measuring tumors using calipers (volume=π(length*width*height)/6). […]

[2] = test system: bone marrow CD11b+ myeloid cells; test: Flow cytometry of bone marrow CD11b+ myeloid cell subpopulations; format: in vivo, mouse; conditions: day 24, treatment as FIG. 4D (FIG. 5E-F)
[3] = test system: sEV secretion in 9464D-GD2 cells; test: In vitro sEV secretion quantified by nanoparticle tracking analysis; format: cell-based, mouse; conditions: 0.1 μM tipifarnib, 48 h, vs DMSO (FIG. 4A-C)
serum sEVs = test: Serum sEV quantification (BCA protein, NTA) in tumor-bearing mice; format: in vivo, mouse
[4] = test system: sEV secretion from cancer cell lines; conditions: cited from earlier work

Cn1cncc1[C@@](N)(c1ccc(Cl)cc1)c1ccc2c(c1)c(-c1cccc(Cl)c1)cc(=O)n2C [tipifarnib]
tumor growth, tumor volume and weight (9464D-GD2 tumors; dinutuximab 1.25 mg/kg tail vein twice weekly and/or tipifarnib 25 mg/kg oral twice daily, day 24 (FIG. 4F-H)): significant reduction in tumor volume and weight | tumor growth and weight, sEV rescue experiment (9464D-GD2 tumors; dinutuximab and/or tipifarnib with or without sEVs, day 24 (FIG. 6B-D)): mild anti-tumor activity alone | TAM population (CD11b+F4/80+) [1]: significantly suppressed the TAM population | percentage of CD11b+Ly6C^highLy6G^low myeloid cells (TAM precursors) in bone marrow [2]: significantly decreased the percentage of the CD11b+Ly6C^highLy6G^low myeloid cells | percentage of CD11b+Ly6C^lowLy6G^high myeloid cells (TAN precursors) in bone marrow [2]: increased the percentage of CD11b+Ly6C^lowLy6G^high myeloid cells | sEV secretion in vitro (NTA particle concentration) [3]: significantly suppress sEV secretion | sEV secretion in vivo (serum sEV protein) (serum sEVs; tipifarnib 25 mg/kg oral gavage twice daily, day 24 (FIG. 4E)): significant decrease in sEV secretion | circulating sEV concentration (NTA) (serum sEVs; tipifarnib 25 mg/kg oral twice daily, day 24, vs control (FIG. 13C-D)): reduction in circulating sEV concentration | sEV secretion from cancer cell lines in vitro ([4]; literature (ref. 32)): selectively inhibit sEV secretion | mechanism of sEV secretion inhibition (Alix, neutral sphingomyelinase 2, Rab27a) ([4]; literature): inhibited sEV secretion by downregulating several molecules involved in sEV biogenesis and/or secretion
